Record: PubChem BioAssay AID1259254 (NCATS, 2017)

Screen: 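Gene knock-downs that lead to re-replication, shown by excess G2 DNA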 (primary screen)
System: human HCT116 colorectal cancer cells
Reagent: single siRNA against human genes
Timing: 3 days
Measured: 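Nuclei stained with Hoechst and imaged; cell-cycle phase assigned by DNA content; G2 share scaled per plate, non-targeting siRNA 0%, GMNN siRNA 100%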
Direction: G2 robust z-score and G2 cells, % of GMNN control: higher = more G2 cells, more excess DNA replication
Rule for the call: 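Active siRNAs have a G2 robust z of 5 or more median absolute deviations over the median, which in these data means about 38% or higher of GMNN control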
The deposit covers about 59,000 reagents; shown is a random part of them. In the full data, about 1,550 (2.6%) were called active. 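G2 share is only a proxy for re-replication; each gene was hit by three separate siRNAs, and active genes were retested.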 Not all columns of the deposit are shown. Reagent sequences are not shown. Not stated in the record: the amount of reagent.

After knock-down of SRMS (GeneID 6725) [SID160717336] the results were G2 robust z-score 0.806; G2 cells, % of GMNN control 8.64; inactive.
SRMS (GeneID 6725) [SID160724086] scored G2 robust z-score -0.485; G2 cells, % of GMNN control -0.447; inactive.
With knock-down of SRMS (GeneID 6725) [SID160731789] the results were G2 robust z-score -0.878; G2 cells, % of GMNN control -3.21; inactive.
Against OR2S2 (GeneID 56656) [SID160745108], the entry reads G2 robust z-score 1.68; G2 cells, % of GMNN control 14.8; inactive.
Against OR2S2 (GeneID 56656) [SID160745109], the values are G2 robust z-score -0.766; G2 cells, % of GMNN control -2.42; inactive.
OR2S2 (GeneID 56656) [SID160745110] scored G2 robust z-score -1.02; G2 cells, % of GMNN control -4.2; inactive.
Depletion of LCN8 (GeneID 138307) [SID160730623] gave: G2 robust z-score -0.982; G2 cells, % of GMNN control -3.94; inactive.
Knock-down of LCN8 (GeneID 138307) [SID160757591] resulted in: G2 robust z-score -1.06; G2 cells, % of GMNN control -4.52; inactive.
LCN8 (GeneID 138307) [SID160757592] showed G2 robust z-score 0.0144; G2 cells, % of GMNN control 3.07; inactive.
For F3 (GeneID 2152) [SID160762981], the entry reads G2 robust z-score 0.915; G2 cells, % of GMNN control 9.4; inactive.
After knock-down of F3 (GeneID 2152) [SID160762991], the record shows G2 robust z-score 3.75; G2 cells, % of GMNN control 29.4; inactive.
After knock-down of F3 (GeneID 2152) [SID160763001], the screen gave G2 robust z-score 0.71; G2 cells, % of GMNN control 7.96; inactive.
FGF7P6 (GeneID 387628) [SID160733183] scored G2 robust z-score 0.281; G2 cells, % of GMNN control 4.94; inactive.
Depletion of FGF7P6 (GeneID 387628) [SID160765610] resulted in: G2 robust z-score 0.0919; G2 cells, % of GMNN control 3.61; inactive.
With knock-down of FGF7P6 (GeneID 387628) [SID160765611], the screen gave G2 robust z-score 0.641; G2 cells, % of GMNN control 7.47; inactive.
Against DDX39A (GeneID 10212) [SID160727055], the values are G2 robust z-score -0.738; G2 cells, % of GMNN control -2.22; inactive.
Knock-down of DDX39A (GeneID 10212) [SID160727060] came out at: G2 robust z-score -0.00713; G2 cells, % of GMNN control 2.92; inactive.
Depletion of DDX39A (GeneID 10212) [SID160727066] resulted in: G2 robust z-score -0.817; G2 cells, % of GMNN control -2.78; inactive.

Part of the list above, limited to “G2 robust z-score”:
F3 (GeneID 2152) [SID160763001]: 0.71
FGF7P6 (GeneID 387628) [SID160733183]: 0.281
FGF7P6 (GeneID 387628) [SID160765610]: 0.0919

Next results follow.
For PCDHB10 (GeneID 56126) [SID160744820], the entry reads G2 robust z-score -0.518; G2 cells, % of GMNN control -0.68; inactive.
Silencing of PCDHB10 (GeneID 56126) [SID160744821] resulted in: G2 robust z-score 1.19; G2 cells, % of GMNN control 11.4; inactive.
Against PCDHB10 (GeneID 56126) [SID160744822] the deposit lists G2 robust z-score -0.682; G2 cells, % of GMNN control -1.83; inactive.
DCAF10 (GeneID 79269) [SID160748800] gave G2 robust z-score -0.782; G2 cells, % of GMNN control -2.54; inactive.
For DCAF10 (GeneID 79269) [SID160748801], the entry reads G2 robust z-score 0.462; G2 cells, % of GMNN control 6.22; inactive.
Silencing of DCAF10 (GeneID 79269) [SID160748802] resulted in: G2 robust z-score -0.381; G2 cells, % of GMNN control 0.286; inactive.
AGBL1-AS1 (GeneID 727915) [SID160726488] scored G2 robust z-score 0.692; G2 cells, % of GMNN control 7.83; inactive.
For AGBL1-AS1 (GeneID 727915) [SID160734253] the deposit lists G2 robust z-score -0.798; G2 cells, % of GMNN control -2.65; inactive.
With knock-down of AGBL1-AS1 (GeneID 727915) [SID160771303], the record shows G2 robust z-score -0.049; G2 cells, % of GMNN control 2.62; inactive.
ITCH (GeneID 83737) [SID160751372] showed G2 robust z-score -0.886; G2 cells, % of GMNN control -3.27; inactive.
With knock-down of ITCH (GeneID 83737) [SID160751373], the record shows G2 robust z-score -0.86; G2 cells, % of GMNN control -3.09; inactive.
ITCH (GeneID 83737) [SID160751374] scored G2 robust z-score 0.194; G2 cells, % of GMNN control 4.33; inactive.
